Experimental data: PubChem BioAssay AID1259254 (NCATS, 2017)
Test: 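Genome-wide screen for genes that prevent DNA re-replication in cancer cells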 (primary screen). System: human HCT116 colorectal cancer cells. Knock-down reagent: single siRNA against human genes. Duration: 3 days. Measured: 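Imaged Hoechst DNA stain sorts each cell into a cycle phase by DNA amount; per plate, G2 fraction set to 0% for non-targeting and 100% for GMNN siRNA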. Reading the numbers: G2 robust z-score and G2 cells, % of GMNN control: higher = more G2 cells, more excess DNA replication. Hit rule: 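Active siRNAs have a G2 robust z of 5 or more median absolute deviations over the median, which in these data means about 38% or higher of GMNN control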.
Here is an unselected part of about 59,000 reagents. Over the whole deposit, about 1,550 (2.6%) are marked active. 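G2 share is only a proxy for re-replication; each gene was hit by three separate siRNAs, and active genes were retested.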 Reagents against one gene are numbered here. Not all columns of the deposit are shown. Not stated in the record: the amount of reagent.

no.	gene	siRNA no.	G2 robust z-score	G2 cells, % of GMNN control	Call
1	GMIP	1	0.957	9.7	inactive
2	GMIP	2	-1.09	-4.67	inactive
3	GMIP	3	-0.119	2.13	inactive
4	DEGS2	1	-0.64	-1.54	inactive
5	DEGS2	2	0.054	3.35	inactive
6	DEGS2	3	-0.803	-2.68	inactive
7	TMEM158	1	1.29	12	inactive
8	TMEM158	2	0.296	5.05	inactive
9	TMEM158	3	-0.223	1.4	inactive
10	LINC02043	1	0.121	3.82	inactive
11	LINC02043	2	-0.153	1.89	inactive
12	LINC02043	3	1.88	16.2	inactive
13	REC114	1	0.494	6.44	inactive
14	REC114	2	-0.473	-0.36	inactive
15	REC114	3	3.14	25	inactive
16	ZCCHC13	1	1.46	13.3	inactive
17	ZCCHC13	2	1.17	11.2	inactive
18	ZCCHC13	3	-0.362	0.42	inactive
19	FASTKD3	1	0.191	4.31	inactive
20	FASTKD3	2	-0.365	0.4	inactive
21	FASTKD3	3	0.828	8.8	inactive
22	CABP2	1	0.284	4.97	inactive
23	CABP2	2	-0.684	-1.85	inactive
24	CABP2	3	0.266	4.84	inactive
25	SLF1	1	-1.2	-5.45	inactive
26	SLF1	2	-0.372	0.35	inactive
27	SLF1	3	-0.0318	2.74	inactive
28	FAM13B	1	-0.387	0.242	inactive
29	FAM13B	2	-0.0708	2.47	inactive
30	FAM13B	3	3.01	24.2	inactive
31	ELOVL6	1	0.705	7.93	inactive
32	ELOVL6	2	3.47	27.4	inactive
33	ELOVL6	3	0.17	4.16	inactive
34	KRABD3	1	-0.744	-2.26	inactive
35	KRABD3	2	-0.402	0.136	inactive
36	KRABD3	3	1.54	13.8	inactive
37	CDH20	1	0.426	5.97	inactive
38	CDH20	2	-0.202	1.54	inactive
39	CDH20	3	-0.681	-1.82	inactive
40	UBL4B	1	0.33	5.29	inactive
41	UBL4B	2	-0.331	0.639	inactive
42	UBL4B	3	0.207	4.43	inactive
43	FGF22	1	-1.09	-4.72	inactive
44	FGF22	2	1.06	10.5	inactive
45	FGF22	3	-0.49	-0.479	inactive
46	DYNC1I1	1	1.1	10.7	inactive
47	DYNC1I1	2	-0.369	0.371	inactive
48	DYNC1I1	3	-0.828	-2.86	inactive
49	LETR1	1	-0.641	-1.54	inactive
50	LETR1	2	-0.747	-2.29	inactive
51	LETR1	3	-1.15	-5.11	inactive
52	ERAP2	1	5.98	45.1	active
53	ERAP2	2	-0.166	1.8	inactive
54	ERAP2	3	0.0631	3.41	inactive
55	ATP8B1	1	-0.884	-3.26	inactive
56	ATP8B1	2	0.198	4.36	inactive
57	ATP8B1	3	-0.552	-0.915	inactive
58	LYPLA1	1	-0.497	-0.532	inactive
59	LYPLA1	2	2.58	21.1	inactive
60	LYPLA1	3	-0.812	-2.75	inactive
61	MECOM	1	-0.327	0.663	inactive
62	MECOM	2	-0.0248	2.79	inactive
63	MECOM	3	-0.387	0.244	inactive
64	MECOM	4	0.0172	3.09	inactive
65	MECOM	5	-0.898	-3.35	inactive
66	MECOM	6	-0.51	-0.62	inactive
67	CNNM4	1	-0.678	-1.8	inactive
68	CNNM4	2	0.0878	3.59	inactive
69	CNNM4	3	0.975	9.83	inactive
